Assay [1] concerns the target PRMT5, endogenous in SW620-L1 cells (human (endogenous in SW620-L1)) (UniProt O14744). Briefly: co-IP.
Assay [2] addresses Flag-PRMT5 (human) (UniProt O14744). Briefly: co-IP.

Sequences of proteins named here, by UniProt entry; tags and fusion partners are left off.
UniProt P31749: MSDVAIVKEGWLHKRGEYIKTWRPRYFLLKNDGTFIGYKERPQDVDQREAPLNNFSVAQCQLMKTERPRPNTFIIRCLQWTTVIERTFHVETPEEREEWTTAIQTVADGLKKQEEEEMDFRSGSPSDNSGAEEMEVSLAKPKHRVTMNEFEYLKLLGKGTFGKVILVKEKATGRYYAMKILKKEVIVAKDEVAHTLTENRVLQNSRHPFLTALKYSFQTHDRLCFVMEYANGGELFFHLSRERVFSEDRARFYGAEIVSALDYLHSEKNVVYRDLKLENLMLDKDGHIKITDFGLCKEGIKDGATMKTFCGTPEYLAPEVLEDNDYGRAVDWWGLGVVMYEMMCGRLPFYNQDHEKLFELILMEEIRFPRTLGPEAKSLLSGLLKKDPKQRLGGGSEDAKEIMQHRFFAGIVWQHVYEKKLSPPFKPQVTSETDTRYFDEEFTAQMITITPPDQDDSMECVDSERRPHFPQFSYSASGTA

Results are given in words; binding and its absence hold for the method and conditions named. In cells and extracts the contact can be indirect. Some entries that bind do so weakly or less than the wild type.

As for “AKT1, endogenous in SW620-L1 cells (from UniProt P31749 1-480) (enzyme)”, in assay [1], the binding entry is “binds”.
For Myc-Rheb (from UniProt Q15382 1-184), in assay [2], the binding entry is reported as “no binding”.

These data come from paper doi:10.1101/2024.10.21.619337.
